Assay results published in PubChem BioAssay AID2685 (National Center for Advancing Translational Sciences (NCATS), 2010).
Some of the results follow. Shown are side measurements of this screen, not its main read-out; they come without a call. Most of these compounds were active or inconclusive in the main read-out, so they are no random draw. Potencies come from curve fits of mixed quality, noted in brackets.

Experiment: qHTS Assay for Lipid Storage Modulators in Drosophila S3 Cells;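 as to cell number change: cells counted by Cell Tracker Red CMTPX staining in the red channel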
Conditions: BODIPY lipid droplet fluorescence, 18-24 h; for cell number change: measured here: cell count max response, cells fed with added oleic acid
Method in brief: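 Drosophila S3 cells got compounds at several concentrations plus oleic acid (400 uM solution). Laser-scanning cytometry with 488 nm excitation read lipid droplets at 500-530 nm and cells at 575-640 nm. Percent activity was relative to 20 uM Triacsin C.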

[1] = measured here: lipid fluorescence (Fed channel) AC50, cells fed with added oleic acid
[2] = measured here: cell number channel AC50, cells fed with added oleic acid

| SMILES | cell number change [%] | AC50 [1] | AC50 [2] |
| --- | --- | --- | --- |
| Cc1ccc(C(=O)N/C(=C/c2ccc(-c3cccc([N+](=O)[O-])c3)o2)C(=O)NC(C)(C)C)cc1 | -3.17 | 32.6 µM [falling, partial curve, poor fit] | – |
| CC[C@H](C)C(N)c1cn(C(CCCN=C(N)N)C(=O)N2CCNCC2)nn1 (stereo not given in full) | – | 0.00461 µM [rising, full curve, poor fit] | – |
| Cc1ccc(C(c2nnnn2C2CCCC2)N2CCc3ccccc32)cc1 (stereo not given) | -25.7 | 7.31 µM [falling, partial curve] | – |
| CCOc1ccccc1NC(=O)c1cccc2ccccc12 | 10.3 | 0.116 µM [rising, full curve, poor fit] | – |
| COc1ccc(CNC(=O)c2ccc[nH]2)cc1Cl | 12.7 | 0.116 µM [rising, full curve, poor fit] | – |
| COc1cc(NC(=S)N2CCC(C(N)=O)CC2)c(OC)cc1Cl | 9.87 | 1.16 µM [falling, single point] | – |
| Cc1ccc(NC(=S)N2CCN(S(=O)(=O)c3ccc(F)cc3)CC2)cc1 | – | 29.1 µM [rising, single point] | – |
| CCc1csc(CNC(=O)C2CCC(=O)N(Cc3cccc(F)c3)C2)n1 (stereo not given) | 5.57 | 29.1 µM [rising, single point] | – |
| Cc1nc2cc(-c3ccc(Cl)cc3)nn2c(NCCN(C)C)c1C | -39.2 | – | – |
| CCOc1cc(N2CCOCC2)c(OCC)cc1NC(=O)COc1ccccc1[N+](=O)[O-] | -0.543 | – | – |
| O=C(CN1CCN(S(=O)(=O)c2ccccc2)CC1)Nc1ccc2c(c1)CCC2 | 19 | – | 4.11 µM [rising, full curve, poor fit] |
| CCOC(=O)C1CCN(c2c(NCCN(CC)c3ccccc3)c(=O)c2=O)CC1 | 20 | 7.31 µM [rising, partial curve] | – |
| CC(C)(C)c1ccc(C(=O)N2CCC(C(=O)NC3CCCCCC3)CC2)cc1 | -11.8 | – | – |
| O=C(NC(=S)Nc1ccccc1N1CCCC1)c1ccc([N+](=O)[O-])cc1 | -13.1 | 23.1 µM [falling, single point] | – |
| COc1ccc(C(=O)N2CCCC(Nc3ccc(C)c(C)c3)C2)cc1 (stereo not given) | 15.9 | 3.26 µM [rising, partial curve, poor fit] | – |
| Fc1ccc(C(c2nnnn2C2CCCC2)N2CCN(Cc3ccncc3)CC2)cc1 (stereo not given) | 14.9 | 1.84 µM [rising, partial curve] | 2.06 µM [rising, partial curve] |
| Cc1ccc(-n2nc3cc(C)c(N)cc3n2)cc1 | 28.5 | 2.31 µM [rising, partial curve] | – |

Shown field by field: part of the list above
Cc1nc2cc(-c3ccc(Cl)cc3)nn2c(NCCN(C)C)c1C
  cell number change [%]: -39.2
COc1ccc(C(=O)N2CCCC(Nc3ccc(C)c(C)c3)C2)cc1 (stereo not given)
  cell number change [%]: 15.9; AC50 [1]: 3.26 µM [rising, partial curve, poor fit]
